For test [1], the target named is NFIB (endogenous) (human (endogenous in U2OS, BT-474, ZR-75-1)) (UniProt O00712). Description: co-IP; endogenous proteins, U2OS whole cell extracts; lysis buffer 50 mM Tris-HCl pH 7.5, 150 mM NaCl, 0.3% NP-40, 2 mM EDTA; 500 μg protein, 2 μg antibody, 4 °C 12 h, protein A or G beads; IP anti-NFIB, immunoblot of partners. (In general: In western blotting, separated proteins are transferred to a membrane and probed.)

Test [2] shares this target. Description: co-IP; endogenous proteins, chromatin fraction (CSK buffer + 0.5% Triton X-100, DNase I) of U2OS synchronized at G1/S boundary by double-thymidine block; IP anti-NFIB with blots of partners, and IP of partners with blot of NFIB.
The target of test [3] is GST-fused full-length NFIB (UniProt O00712). Nature of the test: pull-down; GST fusion proteins immobilised on glutathione-Sepharose 4B beads; 10 μl in vitro transcribed/translated protein, 2 h 4 °C; 10 mM HEPES pH 7.6, 3 mM MgCl2, 100 mM KCl, 5 mM EDTA, 5% glycerol, 0.5% CA630; only the target purified.
Test [4] has as its target GST-fused C-terminal fragment of NFIB (69-495 aa) (UniProt O00712). Described as above.
Test [5] has as its target GST-fused N-terminal fragment of NFIB (1-173 aa) (UniProt O00712). The description is as above.
In test [6] the target is GST-fused MH1-deleted mutant of NFIB (1-68 aa + 174-495 aa) (UniProt O00712). The test is described as above.

No constants are given. Whether binding was seen depends on the method and setting. Binding seen in cells or lysates may run through a third protein. Some results given as binding are weak or reduced against the parent protein; the word gives no strength.

B1: CDC6 (cell division cycle protein 6) (endogenous) (protein, UniProt Q99741 1-560)
chain: MPQTRSQAQATISFPKRKLSRALNKAKNSSDAKLEPTNVQTVTCSPRVKALPLSPRKRLGDDNLCNTPHLPPCSPPKQGKKENGPPHSHTLKGRRLVFDNQLTIKSPSKRELAKVHQNKILSSVRKSQEITTNSEQRCPLKKESACVRLFKQEGTCYQQAKLVLNTAVPDRLPAREREMDVIRNFLREHICGKKAGSLYLSGAPGTGKTACLSRILQDLKKELKGFKTIMLNCMSLRTAQAVFPAIAQEICQEEVSRPAGKDMMRKLEKHMTAEKGPMIVLVLDEMDQLDSKGQDVLYTLFEWPWLSNSHLVLIGIANTLDLTDRILPRLQAREKCKPQLLNFPPYTRNQIVTILQDRLNQVSRDQVLDNAAVQFCARKVSAVSGDVRKALDVCRRAIEIVESDVKSQTILKPLSECKSPSEPLIPKRVGLIHISQVISEVDGNRMTLSQEGAQDSFPLQQKILVCSLMLLIRQLKIKEVTLGKLYEAYSKVCRKQQVAAVDQSECLSLSGLLEARGILGLKRNKETRLTKVFFKIEEKEIEHALKDKALIGNILATGLP
With B1, the binding result in test [1] and in test [2] was “binds” each time.

B2: CDC6 (in vitro transcribed/translated) (protein, UniProt Q99741 1-560)
chain: B1 chain
In the case of B2, the binding result in test [3], in test [4] and in test [5] was “binds” each time.

B3: MCM6 (endogenous) (protein, UniProt Q14566 1-821)
chain: MDLAAAAEPGAGSQHLEVRDEVAEKCQKLFLDFLEEFQSSDGEIKYLQLAEELIRPERNTLVVSFVDLEQFNQQLSTTIQEEFYRVYPYLCRALKTFVKDRKEIPLAKDFYVAFQDLPTRHKIRELTSSRIGLLTRISGQVVRTHPVHPELVSGTFLCLDCQTVIRDVEQQFKYTQPNICRNPVCANRRRFLLDTNKSRFVDFQKVRIQETQAELPRGSIPRSLEVILRAEAVESAQAGDKCDFTGTLIVVPDVSKLSTPGARAETNSRVSGVDGYETEGIRGLRALGVRDLSYRLVFLACCVAPTNPRFGGKELRDEEQTAESIKNQMTVKEWEKVFEMSQDKNLYHNLCTSLFPTIHGNDEVKRGVLLMLFGGVPKTTGEGTSLRGDINVCIVGDPSTAKSQFLKHVEEFSPRAVYTSGKASSAAGLTAAVVRDEESHEFVIEAGALMLADNGVCCIDEFDKMDVRDQVAIHEAMEQQTISITKAGVKATLNARTSILAAANPISGHYDRSKSLKQNINLSAPIMSRFDLFFILVDECNEVTDYAIARRIVDLHSRIEESIDRVYSLDDIRRYLLFARQFKPKISKESEDFIVEQYKHLRQRDGSGVTKSSWRITVRQLESMIRLSEAMARMHCCDEVQPKHVKEAFRLLNKSIIRVETPDVNLDQEEEIQMEVDEGAGGINGHADSPAPVNGINGYNEDINQESAPKASLRLGFSEYCRISNLIVLHLRKVEEEEDESALKRSELVNWYLKEIESEIDSEEELINKKRIIEKVIHRLTHYDHVLIELTQAGLKGSTEGSESYEEDPYLVVNPNYLLED
As to B3, the binding entry in test [1] and in test [2] was “binds” throughout.

B4: MCM6 (in vitro transcribed/translated) (protein, UniProt Q14566 1-821)
chain: B3 chain
Turning to B4, the binding entry in test [3], in test [4] and in test [6] was “binds” each time.

These data come from paper PMC10442334.
